# Test results reported in patent publication US20260266848A1, “COMPOSITIONS AND METHODS FOR DIAGNOSING AND TREATING DYSTONIA” (Duke University, priority 2023, published 2026).
# B1: ILK (protein, UniProt Q13418 1-452, looked up)
# Scaffold protein ILK: MDDIFTQCREGNAVAVRLWLDNTENDLNQGDDHGFSPLHWACREGRSAVVEMLIMRGARINVMNRGDDTPLHLAASHGHRDIVQKLLQYKADINAVNEHGNVPLHYACFWGQDQVAEDLVANGALVSICNKYGEMPVDKAKAPLRELLRERAEKMGQNLNRIPYKDTFWKGTTRTRPRNGTLNKHSGIDFKQLNFLTKLNENHSGELWKGRWQGNDIVVKVLKVRDWSTRKSRDFNEECPRLRIFSHPNVLPVLGACQSPPAPHPTLITHWMPYGSLYNVLHEGTNFVVDQSQAVKFALDMARGMAFLHTLEPLIPRHALNSRSVMIDEDMTARISMADVKFSFQCPGRMYAPAWVAPEALQKKPEDTNRRSADMWSFAVLLWELVTREVPFADLSNMEIGMKVALEGLRPTIPPGISPHVCKLMKICMNEDPAKRPKFDMIVPILEKMQDK
# B2: PRSS3 (protein, UniProt P35030 81-304, looked up)
# Trypsin-3: IVGGYTCEENSLPYQVSLNSGSHFCGGSLISEQWVVSAAHCYKTRIQVRLGEHNIKVLEGNEQFINAAKIIRHPKYNRDTLDNDIMLIKLSSPAVINARVSTISLPTTPPAAGTECLISGWGNTLSFGADYPDELKCLDAPVLTQAECKASYPGKITNSMFCVGFLEGGKDSCQRDSGGPVVCNGQLQGVVSWGHGCAWKNRPGVYTKVYNYVDWIKDTIAANS
# B3: OBP2A (protein, UniProt Q9NY56 16-170, looked up)
# Odorant-binding protein 2a: LSFTLEEEDITGTWYVKAMVVDKDFPEDRRPRKVSPVKVTALGGGNLEATFTFMREDRCIQKKILMRKTEEPGKFSAYGGRKLIYLQELPGTDDYVFYCKDQRRGGLRYMGKLVGRNPNTNLEALEEFKKLVQHKGLSEEDIFMPLQTGSCVLEH
# B4: SEC31A (protein, UniProt O94979 1-1220, looked up)
# Protein transport protein …: MKLKEVDRTAMQAWSPAQNHPIYLATGTSAQQLDATFSTNASLEIFELDLSDPSLDMKSCATFSSSHRYHKLIWGPYKMDSKGDVSGVLIAGGENGNIILYDPSKIIAGDKEVVIAQNDKHTGPVRALDVNIFQTNLVASGANESEIYIWDLNNFATPMTPGAKTQPPEDISCIAWNRQVQHILASASPSGRATVWDLRKNEPIIKVSDHSNRMHCSGLAWHPDVATQMVLASEDDRLPVIQMWDLRFASSPLRVLENHARGILAIAWSMADPELLLSCGKDAKILCSNPNTGEVLYELPTNTQWCFDIQWCPRNPAVLSAASFDGRISVYSIMGGSTDGLRQKQVDKLSSSFGNLDPFGTGQPLPPLQIPQQTAQHSIVLPLKKPPKWIRRPVGASFSFGGKLVTFENVRMPSHQGAEQQQQQHHVFISQVVTEKEFLSRSDQLQQAVQSQGFINYCQKKIDASQTEFEKNVWSFLKVNFEDDSRGKYLELLGYRKEDLGKKIALALNKVDGANVALKDSDQVAQSDGEESPAAEEQLLGEHIKEEKEESEFLPSSGGTFNISVSGDIDGLITQALLTGNFESAVDLCLHDNRMADAIILAIAGGQELLARTQKKYFAKSQSKITRLITAVVMKNWKEIVESCDLKNWREALAAVLTYAKPDEFSALCDLLGTRLENEGDSLLQTQACLCYICAGNVEKLVACWTKAQDGSHPLSLQDLIEKVVILRKAVQLTQAMDTSTVGVLLAAKMSQYANLLAAQGSIAAALAFLPDNTNQPNIMQLRDRLCRAQGEPVAGHESPKIPYEKQQLPKGRPGPVAGHHQMPRVQTQQYYPHGENPPPPGFIMHGNVNPNAAGQLPTSPGHMHTQVPPYPQPQPYQPAQPYPFGTGGSAMYRPQQPVAPPTSNAYPNTPYISSASSYTGQSQLYAAQHQASSPTSSPATSFPPPPSSGASFQHGGPGAPPSSSAYALPPGTTGTLPAASELPASQRTGPQNGWNDPPALNRVPKKKKMPENFMPPVPITSPIMNPLGDPQSQMLQQQPSAPVPLSSQSSFPQPHLPGGQPFHGVQQPLGQTGMPPSFSKPNIEGAPGAPIGNTFQHVQSLPTKKITKKPIPDEHLILKTTFEDLIQRCLSSATDPQTKRKLDDASKRLEFLYDKLREQTLSPTITSGLHNIARSIETRNYSEGLTMHTHIVSTSNFSETSAFMPVLKVVLTQANKLGV
# B5: KRT33A (protein, UniProt O76009 1-404, looked up)
# Keratin, type I cuticular …: MSYSCGLPSLSCRTSCSSRPCVPPSCHGCTLPGACNIPANVSNCNWFCEGSFNGSEKETMQFLNDRLASYLEKVRQLERDNAELENLIRERSQQQEPLVCASYQSYFKTIEELQQKILCSKSENARLVVQIDNAKLASDDFRTKYETELSLRQLVESDINGLRRILDELTLCRSDLEAQVESLKEELLCLKQNHEQEVNTLRCQLGDRLNVEVDAAPTVDLNQVLNETRSQYEALVETNRREVEQWFATQTEELNKQVVSSSEQLQSYQAEIIELRRTVNALEIELQAQHNLRDSLENTLTESEARYSSQLSQVQRLITNVESQLAEIRSDLERQNQEYQVLLDVRARLECEINTYRSLLESEDCKLPSNPCATTNACDKSTGPCISNPCGLRARCGPCNTFGY
# B6: ABCB9 (protein, UniProt Q9NP78 1-766, looked up)
# ABC-type oligopeptide …: MRLWKAVVVTLAFMSVDICVTTAIYVFSHLDRSLLEDIRHFNIFDSVLDLWAACLYRSCLLLGATIGVAKNSALGPRRLRASWLVITLVCLFVGIYAMVKLLLFSEVRRPIRDPWFWALFVWTYISLGASFLLWWLLSTVRPGTQALEPGAATEAEGFPGSGRPPPEQASGATLQKLLSYTKPDVAFLVAASFFLIVAALGETFLPYYTGRAIDGIVIQKSMDQFSTAVVIVCLLAIGSSFAAGIRGGIFTLIFARLNIRLRNCLFRSLVSQETSFFDENRTGDLISRLTSDTTMVSDLVSQNINVFLRNTVKVTGVVVFMFSLSWQLSLVTFMGFPIIMMVSNIYGKYYKRLSKEVQNALARASNTAEETISAMKTVRSFANEEEEAEVYLRKLQQVYKLNRKEAAAYMYYVWGSGLTLLVVQVSILYYGGHLVISGQMTSGNLIAFIIYEFVLGDCMESVGSVYSGLMQGVGAAEKVFEFIDRQPTMVHDGSLAPDHLEGRVDFENVTFTYRTRPHTQVLQNVSFSLSPGKVTALVGPSGSGKSSCVNILENFYPLEGGRVLLDGKPISAYDHKYLHRVISLVSQEPVLFARSITDNISYGLPTVPFEMVVEAAQKANAHGFIMELQDGYSTETGEKGAQLSGGQKQRVAMARALVRNPPVLILDEATSALDAESEYLIQQAIHGNLQKHTVLIIAHRLSTVEHAHLIVVLDKGRVVQQGTHQQLLAQGGLYAKLVQRQMLGLQPAADFTAGHNEPVANGSHKA
# B7: SP110 (protein, UniProt Q9HB58 1-689, looked up)
# Sp110 nuclear body protein: MFTMTRAMEEALFQHFMHQKLGIAYAIHKPFPFFEGLLDNSIITKRMYMESLEACRNLIPVSRVVHNILTQLERTFNLSLLVTLFSQINLREYPNLVTIYRSFKRVGASYEWQSRDTPILLEAPTGLAEGSSLHTPLALPPPQPPQPSCSPCAPRVSEPGTSSQQSDEILSESPSPSDPVLPLPALIQEGRSTSVTNDKLTSKMNAEEDSEEMPSLLTSTVQVASDNLIPQIRDKEDPQEMPHSPLGSMPEIRDNSPEPNDPEEPQEVSSTPSDKKGKKRKRCIWSTPKRRHKKKSLPGGTASSRHGIQKKLKRVDQVPQKKDDSTCNSTVETRAQKARTECARKSRSEEIIDGTSEMNEGKRSQKTPSTPRRVTQGAASPGHGIQEKLQVVDKVTQRKDDSTWNSEVMMRVQKARTKCARKSRLKEKKKEKDICSSSKRRFQKNIHRRGKPKSDTVDFHCSKLPVTCGEAKGILYKKKMKHGSSVKCIRNEDGTWLTPNEFEVEGKGRNAKNWKRNIRCEGMTLGELLKRKNSDECEVCCQGGQLLCCGTCPRVFHEDCHIPPVEAKRMLWSCTFCRMKRSSGSQQCHHVSKTLERQMQPQDQLIRDYGEPFQEAMWLDLVKERLITEMYTVAWFVRDMRLMFRNHKTFYKASDFGQVGLDLEAEFEKDLKDVLGFHEANDGGFWTLP
# B8: TFB1M (protein, UniProt Q8WVM0 28-346, looked up)
# Dimethyladenosine transferase …: QAAKQLSQNFLLDLRLTDKIVRKAGNLTNAYVYEVGPGPGGITRSILNADVAELLVVEKDTRFIPGLQMLSDAAPGKLRIVHGDVLTFKVEKAFSESLKRPWEDDPPNVHIIGNLPFSVSTPLIIKWLENISCRDGPFVYGRTQMTLTFQKEVAERLAANTGSKQRSRLSVMAQYLCNVRHIFTIPGQAFVPKPEVDVGVVHFTPLIQPKIEQPFKLVEKVVQNVFQFRRKYCHRGLRMLFPEAQRLESTGRLLELADIDPTLRPRQLSISHFKSLCDVYRKMCDEDPQLFAYNFREELKRRKSKNEEKEEDDAENYRL
# Tested on: DYT1 patient plasma derived EVs
# Assay: Plasma-derived EV proteomics (ExoQuick ULTRA, DIA LC/MS/MS), DYT1 vs Healthy Controls
# Set-up: species or system human
# Conditions: DYT1 patients as compared to healthy controls
# Protocol: Data was obtained for extracellular vesicles using previously acquired samples. The ExoQuick® ULTRA EV Isolation System was used to fractionate and enrich EVs from plasma. Isolated plasma EV samples were then submitted to proteomic analysis by the Duke Proteomics and Metabolomics Core Facility (DPMCF). At the DPMCF, quantitative (LC/MS/MS) was performed on 500 ng of each sample, using an EvoSep One UPLC system coupled to a Thermo Orbitrap Astral high-resolution accurate mass tandem mass spectrometer (Thermo). Briefly, the sample was eluted directly from an Evotip which was subjected to a low organic wash and then subjected to an analytical separation using a 1.7 μm EvoSep 150 um ID×15 cm endurance (EveoSep) column running an SPD30 gradient from approximately 5 to 30% acetonitrile with 0.1% formic acid with a column temperature of 50 C. Data collection on the Orbitrap Astral mass spectrometer was performed in a data-independent acquisition (DIA) mode of acquisition with a r=240,000 (@m/z 200) full MS scan from m/z 380-980 with a target AGC value of 4e5 ions. Fixed DIA, windows of 4 m/z from m/z 380 to 980 DIA MS/MS scans were acquired in the Astral with a target AGC value of 5e4 and a max fill time of 6 ms. HCD collision energy setting of 27% was used for all MS2 scans.
row,Molecule,Log2FC
1,B1,1.1474
2,B2,−0.2795
3,B3,1.9446

# Same assay, conditions: Hs. Plasma EVs (DYT1/WT)
row,Molecule,Directionality
1,B4,DOWN

# Same assay, conditions: Hs. Plasma EVs (DYT1/WT); protein level, human patient derived EVs by genotype
row,Molecule,Log2_FC
1,B4,-1.128

# Same assay, conditions: directionality of protein change, human plasma derived EVs, DYT1 vs WT(HC)
row,Molecule,Hs. Plasma EVs (DYT1/WT)
1,B4,DOWN

# Same assay, conditions: protein abundance, DYT1 patients
row,Molecule,Mean DYT1
1,B5,4.309
2,B1,7.193
3,B4,8.231
4,B6,9.723
5,B2,8.821
6,B7,8.490
7,B3,8.456
8,B8,7.004

# Same assay, conditions: protein abundance, healthy controls (HC)
row,Molecule,Mean HC
1,B5,5.29
2,B1,6.05
3,B4,9.36
4,B6,11.73
5,B2,9.10
6,B7,9.75
7,B3,6.51
8,B8,5.26
